Data as given in PubChem BioAssay AID1053208 (Peter MacCallum Cancer Centre, 2014)

Assay: 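Synthetic lethal interactions between gene loss and doxorubicin in osteosarcoma cells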 (primary screen)
Cells: mouse osteosarcoma cells, early-passage culture from an engineered mouse model of fibroblastic bone tumour
Reagent: siRNA pool against mouse genes, 40 nM
Timing: about 120 h (48 h before drug, then 72 h with drug)
Challenge: doxorubicin 100 nM for 72 h, roughly 30-40% inhibitory dose
Detection: 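Luminescent ATP signal taken as viability with or without 100 nM doxorubicin for 72 h; mean of two wells set against non-targeting siRNA and turned into robust z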
Scale: viability z-score with doxorubicin: higher = more viable cells under doxorubicin; viability z-score without drug: higher = more viable cells with knock-down alone
Rule for the call: 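a pool counts as active when its viability z-score with doxorubicin is -2 or below and its z-score without drug lies between -2 and 2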
The whole screen tested about 17,000 reagents; below is an unselected part. 788 of them (4.7%) count as active. 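Calls rest on z-score classes alone; an extra cut-off of viability at most 70% of control was not applied to them.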 Entries without a mark were called inactive. Further read-outs or replicates are left out here.

{"Target gene": "Padi3 (peptidyl arginine deiminase, type III)", "combined z-score class": "no change with or without drug", "viability z-score with doxorubicin": -0.67, "viability z-score without drug": 0.84}
{"Target gene": "Fmnl3 (formin-like 3)", "combined z-score class": "no change with or without drug", "viability z-score with doxorubicin": 0.45, "viability z-score without drug": 1.01}
{"Target gene": "Apaf1 (apoptotic peptidase activating factor 1)", "combined z-score class": "no change with or without drug", "viability z-score with doxorubicin": -0.45, "viability z-score without drug": -0.17}
{"Target gene": "Mog (myelin oligodendrocyte glycoprotein)", "combined z-score class": "low cell count with doxorubicin only (active)", "viability z-score with doxorubicin": -2.47, "viability z-score without drug": -1.18}
{"Target gene": "Trp53i11 (transformation related protein 53 inducible protein 11)", "combined z-score class": "no change with or without drug", "viability z-score with doxorubicin": -0.9, "viability z-score without drug": 1.18}
{"Target gene": "Ski (ski proto-oncogene)", "combined z-score class": "no change with or without drug", "viability z-score with doxorubicin": -1.8, "viability z-score without drug": -0.84}
{"Target gene": "Zfp3 (zinc finger protein 3)", "combined z-score class": "no change with or without drug", "viability z-score with doxorubicin": 0, "viability z-score without drug": -0.17}
{"Target gene": "Or6c217 (olfactory receptor family 6 subfamily C member 217)", "combined z-score class": "low cell count with and without drug", "viability z-score with doxorubicin": -2.92, "viability z-score without drug": -3.54}
{"Target gene": "E130006D01Rik (RIKEN cDNA E130006D01 gene)", "combined z-score class": "no change with or without drug", "viability z-score with doxorubicin": 1.35, "viability z-score without drug": 1.52}
{"Target gene": "Sppl2c (signal peptide peptidase 2C)", "combined z-score class": "no change with or without drug", "viability z-score with doxorubicin": -0.45, "viability z-score without drug": -0.51}

Sorted by “viability z-score without drug” (ascending): 4 of the entries above
{"Target gene": "Or6c217 (olfactory receptor family 6 subfamily C member 217)", "combined z-score class": "low cell count with and without drug", "viability z-score with doxorubicin": -2.92, "viability z-score without drug": -3.54}
{"Target gene": "Sppl2c (signal peptide peptidase 2C)", "combined z-score class": "no change with or without drug", "viability z-score with doxorubicin": -0.45, "viability z-score without drug": -0.51}
{"Target gene": "Zfp3 (zinc finger protein 3)", "combined z-score class": "no change with or without drug", "viability z-score with doxorubicin": 0, "viability z-score without drug": -0.17}
{"Target gene": "E130006D01Rik (RIKEN cDNA E130006D01 gene)", "combined z-score class": "no change with or without drug", "viability z-score with doxorubicin": 1.35, "viability z-score without drug": 1.52}

Next entries follow:
{"Target gene": "Lyn (Lyn proto-oncogene, Src family tyrosine kinase)", "combined z-score class": "no change with or without drug", "viability z-score with doxorubicin": 0.34, "viability z-score without drug": 1.85}
{"Target gene": "Uchl4 (ubiquitin carboxyl-terminal esterase L4)", "combined z-score class": "no change with or without drug", "viability z-score with doxorubicin": 1.12, "viability z-score without drug": -0.17}
{"Target gene": "Eps8l3 (EPS8-like 3)", "combined z-score class": "no change with or without drug", "viability z-score with doxorubicin": -1.8, "viability z-score without drug": -0.17}
{"Target gene": "Sarm1 (sterile alpha and HEAT/Armadillo motif containing 1)", "combined z-score class": "no change with or without drug", "viability z-score with doxorubicin": -0.67, "viability z-score without drug": -0.17}
{"Target gene": "Csn1s2a (casein alpha s2-like A)", "combined z-score class": "no change with or without drug", "viability z-score with doxorubicin": 0.34, "viability z-score without drug": 0.51}
{"Target gene": "Tgif2 (TGFB-induced factor homeobox 2)", "combined z-score class": "low cell count with doxorubicin only (active)", "viability z-score with doxorubicin": -2.25, "viability z-score without drug": -1.52}
{"Target gene": "Fkbp3 (FK506 binding protein 3)", "combined z-score class": "no change with or without drug", "viability z-score with doxorubicin": -0.45, "viability z-score without drug": 0.51}
{"Target gene": "Slc24a3", "combined z-score class": "no change with or without drug", "viability z-score with doxorubicin": -1.12, "viability z-score without drug": -0.17}
{"Target gene": "Cab39l (calcium binding protein 39-like)", "combined z-score class": "no change with or without drug", "viability z-score with doxorubicin": -0.22, "viability z-score without drug": 1.01}
{"Target gene": "Crygd (crystallin, gamma D)", "combined z-score class": "no change with or without drug", "viability z-score with doxorubicin": -0.9, "viability z-score without drug": 0.67}
{"Target gene": "Id4 (inhibitor of DNA binding 4)", "combined z-score class": "no change with or without drug", "viability z-score with doxorubicin": -1.35, "viability z-score without drug": -1.35}
{"Target gene": "Serpinb11", "combined z-score class": "no change with or without drug", "viability z-score with doxorubicin": -0.45, "viability z-score without drug": -0.17}
{"Target gene": "Slc60a2c", "combined z-score class": "no change with or without drug", "viability z-score with doxorubicin": -1.57, "viability z-score without drug": -0.34}
{"Target gene": "Bsnd (barttin CLCNK type accessory beta subunit)", "combined z-score class": "no change with or without drug", "viability z-score with doxorubicin": 0, "viability z-score without drug": -0.84}
{"Target gene": "St6galnac3", "combined z-score class": "no change with or without drug", "viability z-score with doxorubicin": 0, "viability z-score without drug": -0.84}
{"Target gene": "S100a5 (S100 calcium binding protein A5)", "combined z-score class": "no change with or without drug", "viability z-score with doxorubicin": -1.57, "viability z-score without drug": 0.17}
{"Target gene": "Pold4 (polymerase (DNA-directed), delta 4)", "combined z-score class": "no change with or without drug", "viability z-score with doxorubicin": -1.69, "viability z-score without drug": -0.84}
{"Target gene": "Dpysl2 (dihydropyrimidinase-like 2)", "combined z-score class": "no change with or without drug", "viability z-score with doxorubicin": 0.34, "viability z-score without drug": 0.84}
